# Experimental data as given in PubChem BioAssay AID540276 (National Center for Advancing Translational Sciences (NCATS), 2011).
# Several values for one entry are separate records, joined by “and”; a condition that tells them apart may be missing. Equal entries are not always repeated. Among all 300,000 compounds or so, about 5,400 (1.8%) were called active. This list was built around the results that the source calls inconclusive (neither active nor inactive); the mix of calls is not that of the screen. The call rests on the fitted dose curve; tested in HEK293 cells. Potencies of inconclusive entries are doubtful fits and often do not repeat. The source holds several records for some structures; these can differ, active in one and inactive in another.
# Assay: qHTS for inhibitors of binding or entry into cells for Marburg Virus
# Conditions: Marburg virus pseudotyped entry inhibition, cell reporter; series mostly up to 37.8 µM
# Potency means the concentration at half of the fitted maximal effect.
row,SMILES,Potency
1,Cc1ccc(/C=C/C(=O)NCc2cccs2)c(C)c1,"inconclusive: 11.2 µM [activator, partial curve, poor fit]"
2,Cc1ccc([C@H]2C[C@H](n3cc(COC(=O)c4ccccc4)nn3)[C@@H](O)CN2CC2CCCCC2)cc1,"inconclusive: 6.28 µM [inhibitor, full curve, poor fit]"
3,Cc1nc2cc(C(F)(F)F)ccc2n1C1CCN(Cc2nnnn2Cc2ccc3c(c2)OCO3)CC1,"inconclusive: 29.1 µM [inhibitor, single point]"
4,COc1ccc(C(C)=O)cc1COc1ccc(Cl)cc1Cl,"inconclusive: 35.5 µM [inhibitor, single point]"
5,O=C(c1cc(-c2ccccc2)on1)N1CCN(C(=O)c2ccco2)CC1,inactive
6,CC(C)N(Cc1ccccc1)C(=O)CN1C(=O)COc2ccc(S(=O)(=O)N3CCCCCC3)cc21,inactive
7,O=C(Nc1ccccc1C(=O)Nc1ccccc1C(=O)O)c1ccccc1,"inconclusive: 11.2 µM [inhibitor, partial curve, poor fit]"
8,CCOC(=O)c1ccc(NC(=O)CSc2nc(SC)ns2)cc1,"inconclusive: 0.112 µM [activator, full curve, poor fit]"
9,Cc1ccc(C(=O)N2C3C=CC(C3)C2(C(F)(F)F)C(F)(F)F)cc1 (configuration not stated),"inconclusive: 0.562 µM [inhibitor, single point]"
10,O=C(/C=C/c1ccccc1)Nc1cccnc1Oc1ccccc1F,"inconclusive: 5.62 µM [activator, single point]"
11,O=C(O)/C=C/C(=O)Nc1cccnc1,"inconclusive: 22.4 µM [activator, single point]"
12,CCn1c(SCc2cccc(C)c2)nnc1-c1ccccc1,"inconclusive: 29.1 µM [inhibitor, single point]"
13,N#Cc1c(/N=C/c2cccs2)sc2c1CCC2,inactive
14,COc1ccc(Nc2nc(-c3ccccc3)nc3ccccc23)cc1,"inconclusive: 35.5 µM [inhibitor, single point]"
15,CCN(CC)CCNC(=O)c1nn(-c2ccc(Cl)cc2)c2c1CCc1cc(OC)ccc1-2,"inconclusive: 11.2 µM [inhibitor, partial curve, poor fit]"
16,N=C(N)SCCN,inactive and active: 35.5 µM
17,Cc1ccc(-n2c(C)nc3oc4ccccc4c(=O)c3c2=O)cc1,"inconclusive: 1.03 µM [activator, full curve]"
18,CCN1C(=S)SC(=O)C1=C1C=C(C)N(CCO)C(C)=C1,"inconclusive: 14.6 µM [inhibitor, single point]"
19,O=C(NC1CCS(=O)(=O)C1)N1CCCCC1 (configuration not stated),"inconclusive: 0.316 µM [inhibitor, full curve, poor fit]"
20,COC(=O)c1cc(C#N)c(N(C)Cc2ccccc2)nc1C,inactive
21,COc1cccc(CNC(=O)CCC2CCCN(C(=O)c3ccccc3N(C)C)C2)c1 (configuration not stated),"inconclusive: 35.5 µM [inhibitor, single point]"
22,Cc1cc(Br)cc(C)c1OCC(=O)NNC(=O)c1cccs1,"inconclusive: 12.6 µM [inhibitor, single point]"
23,COc1ccc(Cl)cc1C(=O)NNC(=O)c1ccc(F)c(S(=O)(=O)N2CCOCC2)c1,"inconclusive: 1.58 µM [inhibitor, partial curve, poor fit]"

# Exported with tabs: 3 of the compounds above
row	SMILES	Potency
18	CCN1C(=S)SC(=O)C1=C1C=C(C)N(CCO)C(C)=C1	inconclusive: 14.6 µM [inhibitor, single point]
19	O=C(NC1CCS(=O)(=O)C1)N1CCCCC1 (configuration not stated)	inconclusive: 0.316 µM [inhibitor, full curve, poor fit]
20	COC(=O)c1cc(C#N)c(N(C)Cc2ccccc2)nc1C	inactive

# Later entries:

row,SMILES,Potency
1,CCC(C)CN1CCC(CO)(Cc2ccccc2Cl)CC1 (configuration not stated),"inconclusive: 3.55 µM [activator, single point]"
2,CCOc1cccc(-c2nn(-c3ccccc3)cc2/C=C(/C#N)C(=O)NCCCn2ccnc2)c1,"inconclusive: 29.1 µM [inhibitor, single point]"
3,CC(C)C(=O)NC(=S)Nc1ccc(S(=O)(=O)N(C)C)cc1,"inconclusive: 15.8 µM [activator, single point]"
4,CCCCN1C(=O)C(O)(CC(=O)c2ccccc2OC)c2ccccc21 (configuration not stated),inactive
5,Oc1cc(Cc2ccccc2)cnc1CN1CCCCC1,"inconclusive: 35.5 µM [inhibitor, single point]"
6,COc1ccccc1C(c1nnnn1C1CCCC1)N1CCN2CCCC2C1 (configuration not stated),"inconclusive: 23.1 µM [inhibitor, partial curve, poor fit]"
7,CN1/C(=C/c2cc[n+](C)c3ccccc23)C=Cc2ccccc21,active: 3.98 µM
8,Clc1ccc(-c2nnc3n2CCCS3)cc1,"inconclusive: 29.1 µM [activator, single point]"
9,CCCSc1nnc(NC(=O)Nc2ccccc2)s1,inactive
10,CNc1ncc(C(=O)c2ccc(Br)cc2)s1,"inconclusive: 11.2 µM [inhibitor, partial curve]"
11,Cc1ccc(F)cc1NC(=O)c1cnccn1,inactive
12,CS(=O)(=O)N(CC(=O)NCCSC1CCCCC1)c1ccccc1,"inconclusive: 6.31 µM [inhibitor, single point]"
13,Nc1nc(CSc2nc3ccccc3[nH]2)cs1,"inconclusive: 5.62 µM [activator, single point]"
14,COc1ccccc1N1CCN(C(=O)c2sc3nc(C)nc(N4CCN(c5ccccn5)CC4)c3c2C)CC1,"inconclusive: 5.62 µM [inhibitor, full curve, poor fit]"
15,OC1(c2ccc(Cl)cc2)CN(c2ccccc2)C2=[N+]1CCS2 (configuration not stated),"inconclusive: 25.1 µM [inhibitor, single point]"
16,O=C(Nc1ccccc1N1CCOCC1)c1cc(-c2ccco2)nc2ccccc12,"inconclusive: 7.94 µM [inhibitor, partial curve, poor fit]"
17,CC(=O)Nc1ccc(NC(=O)C(C)OC(=O)C2CCCCC2)cc1 (configuration not stated),"inconclusive: 0.447 µM [activator, full curve, poor fit]"
18,O=C1NC(c2ccccc2OC(F)F)Oc2ccccc21 (configuration not stated),inactive
19,O=C1c2ccccc2C(=Nc2ccccc2)C1c1cccc(Br)c1 (configuration not stated),"inconclusive: 20.6 µM [inhibitor, single point]"
20,CC1CCCCC12NC(=O)N(CC(=O)N1CCN(S(=O)(=O)c3ccc4c(c3)CCC4)CC1)C2=O (configuration not stated),"inconclusive: 17.8 µM [activator, single point]"
21,COc1ccc2c(c1)CO[C@H]([C@H](O)CO)[C@H]2C=Cc1ccccc1,inactive
22,CCOc1ccccc1NC(=O)c1cc(C(=O)c2cc(OC)ccc2O)coc1=N,inactive
23,CCc1cc(-c2n[nH]c(C)c2-c2nc3ccccc3n2C)c(O)c(CN2CCN(C)CC2)c1O,"inconclusive: 13 µM [inhibitor, partial curve, poor fit]"

row,SMILES,Potency
1,O=C(Oc1ccnc2cc(Cl)ccc12)N1CCCCCC1,"inconclusive: 10 µM [inhibitor, partial curve, poor fit]"
2,CC(C)c1csc(CN2CCC(N3CCC(C(=O)NCC4CCCO4)CC3)CC2)n1 (configuration not stated),inactive
3,CCc1cccc(C)c1NC(=O)C1=C(C)C(=O)OC12CCC(C)CC2 (configuration not stated),inactive
4,COc1ccc(/C=N/NC(=O)c2ccc(CSc3nc(C)cc(C)n3)cc2)c(OC)c1OC,inactive
5,Cc1ccc(S(=O)(=O)N/N=C\c2ccc3c(c2)OCO3)cc1,inactive
6,O=C(c1ccc2c(c1)N(Cc1ccccc1)C(=O)c1ccccc1S2=O)N1CCC(Cc2ccccc2)CC1 (configuration not stated),"inconclusive: 12.6 µM [inhibitor, partial curve, poor fit]"
7,Cc1ccc2c(c1)c(=O)c(S(=O)(=O)c1ccc(C)c(C)c1)cn2CC(=O)Nc1ccccc1,"inconclusive: 35.5 µM [inhibitor, single point]"
8,COc1ccc(CNC(=O)c2cccc(-c3ccc(C)c4ccccc34)n2)cc1,"inconclusive: 29.1 µM [inhibitor, partial curve, poor fit]"
9,N=C(N)SCc1ccccn1,"inconclusive: 35.5 µM [inhibitor, single point]"
10,Cc1ccc(N2CC(C(=O)Nc3ccc(C)c(S(=O)(=O)N(C)C)c3)CC2=O)cc1 (configuration not stated),"inconclusive: 35.5 µM [inhibitor, single point]"
11,COc1ccc(-c2cc(-c3ccccc3)nc(N)n2)c(O)c1,"inconclusive: 6.31 µM [inhibitor, partial curve]"
12,CC1CCN(S(=O)(=O)c2ccc(NC(=O)[C@@H]3CCCN3C(=O)c3cccs3)cc2)CC1,"inconclusive: 31.6 µM [activator, single point]"
13,CNC(=S)N/N=C/c1c(C)nn(-c2ccc(F)cc2)c1Cl,"inconclusive: 4.47 µM [inhibitor, full curve, poor fit]"
14,Cc1c(-c2ccccc2)n(-c2ccccc2O)c2nc3c(c(=O)n(C)c(=O)n3C)n12,"inconclusive: 6.31 µM [activator, single point]"
15,CCCCC(=O)NNC(=S)NC(=O)C(c1ccccc1)c1ccccc1,"inconclusive: 5.62 µM [inhibitor, full curve, poor fit]"
16,Cc1nnc(SCc2cnc(-c3ccccc3)o2)[nH]c1=O,"inconclusive: 10 µM [activator, partial curve, poor fit]"
17,Cc1ccc2c(COC(=O)CNC(=O)c3ccccc3)cc(=O)oc2c1,inactive
18,CC(=O)c1cccc(NC(=S)NC(=O)c2ccc(C)cc2)c1,inactive
19,O=C(N/N=C/c1ccc(O)cc1)c1[nH]c2ccc(Br)cc2c1-c1ccccc1,"inconclusive: 2.59 µM [inhibitor, partial curve]"
20,COCCNCCCCOc1c(Cl)cc(C)cc1Br,"inconclusive: 18.3 µM [inhibitor, single point]"
21,CCn1c(C(=O)N2CCCC(C(=O)NCCCc3ccccc3)C2)cc2sccc21 (configuration not stated),"inconclusive: 20.6 µM [inhibitor, single point]"
